Laboratory results from publication PMC6028381.
No constants are given. Whether binding was seen depends on the method and setting. For some of these results: In cells and extracts the contact can be indirect. Some entries that bind do so weakly or less than the wild type. For some of these results: Sequences can lack the tags named with a protein.

The chains behind the UniProt entries cited, without tags or fusion partners. Where a name states a change or a piece, a line headed by the entry shows the natural chain unless it says otherwise.
UniProt Q13315: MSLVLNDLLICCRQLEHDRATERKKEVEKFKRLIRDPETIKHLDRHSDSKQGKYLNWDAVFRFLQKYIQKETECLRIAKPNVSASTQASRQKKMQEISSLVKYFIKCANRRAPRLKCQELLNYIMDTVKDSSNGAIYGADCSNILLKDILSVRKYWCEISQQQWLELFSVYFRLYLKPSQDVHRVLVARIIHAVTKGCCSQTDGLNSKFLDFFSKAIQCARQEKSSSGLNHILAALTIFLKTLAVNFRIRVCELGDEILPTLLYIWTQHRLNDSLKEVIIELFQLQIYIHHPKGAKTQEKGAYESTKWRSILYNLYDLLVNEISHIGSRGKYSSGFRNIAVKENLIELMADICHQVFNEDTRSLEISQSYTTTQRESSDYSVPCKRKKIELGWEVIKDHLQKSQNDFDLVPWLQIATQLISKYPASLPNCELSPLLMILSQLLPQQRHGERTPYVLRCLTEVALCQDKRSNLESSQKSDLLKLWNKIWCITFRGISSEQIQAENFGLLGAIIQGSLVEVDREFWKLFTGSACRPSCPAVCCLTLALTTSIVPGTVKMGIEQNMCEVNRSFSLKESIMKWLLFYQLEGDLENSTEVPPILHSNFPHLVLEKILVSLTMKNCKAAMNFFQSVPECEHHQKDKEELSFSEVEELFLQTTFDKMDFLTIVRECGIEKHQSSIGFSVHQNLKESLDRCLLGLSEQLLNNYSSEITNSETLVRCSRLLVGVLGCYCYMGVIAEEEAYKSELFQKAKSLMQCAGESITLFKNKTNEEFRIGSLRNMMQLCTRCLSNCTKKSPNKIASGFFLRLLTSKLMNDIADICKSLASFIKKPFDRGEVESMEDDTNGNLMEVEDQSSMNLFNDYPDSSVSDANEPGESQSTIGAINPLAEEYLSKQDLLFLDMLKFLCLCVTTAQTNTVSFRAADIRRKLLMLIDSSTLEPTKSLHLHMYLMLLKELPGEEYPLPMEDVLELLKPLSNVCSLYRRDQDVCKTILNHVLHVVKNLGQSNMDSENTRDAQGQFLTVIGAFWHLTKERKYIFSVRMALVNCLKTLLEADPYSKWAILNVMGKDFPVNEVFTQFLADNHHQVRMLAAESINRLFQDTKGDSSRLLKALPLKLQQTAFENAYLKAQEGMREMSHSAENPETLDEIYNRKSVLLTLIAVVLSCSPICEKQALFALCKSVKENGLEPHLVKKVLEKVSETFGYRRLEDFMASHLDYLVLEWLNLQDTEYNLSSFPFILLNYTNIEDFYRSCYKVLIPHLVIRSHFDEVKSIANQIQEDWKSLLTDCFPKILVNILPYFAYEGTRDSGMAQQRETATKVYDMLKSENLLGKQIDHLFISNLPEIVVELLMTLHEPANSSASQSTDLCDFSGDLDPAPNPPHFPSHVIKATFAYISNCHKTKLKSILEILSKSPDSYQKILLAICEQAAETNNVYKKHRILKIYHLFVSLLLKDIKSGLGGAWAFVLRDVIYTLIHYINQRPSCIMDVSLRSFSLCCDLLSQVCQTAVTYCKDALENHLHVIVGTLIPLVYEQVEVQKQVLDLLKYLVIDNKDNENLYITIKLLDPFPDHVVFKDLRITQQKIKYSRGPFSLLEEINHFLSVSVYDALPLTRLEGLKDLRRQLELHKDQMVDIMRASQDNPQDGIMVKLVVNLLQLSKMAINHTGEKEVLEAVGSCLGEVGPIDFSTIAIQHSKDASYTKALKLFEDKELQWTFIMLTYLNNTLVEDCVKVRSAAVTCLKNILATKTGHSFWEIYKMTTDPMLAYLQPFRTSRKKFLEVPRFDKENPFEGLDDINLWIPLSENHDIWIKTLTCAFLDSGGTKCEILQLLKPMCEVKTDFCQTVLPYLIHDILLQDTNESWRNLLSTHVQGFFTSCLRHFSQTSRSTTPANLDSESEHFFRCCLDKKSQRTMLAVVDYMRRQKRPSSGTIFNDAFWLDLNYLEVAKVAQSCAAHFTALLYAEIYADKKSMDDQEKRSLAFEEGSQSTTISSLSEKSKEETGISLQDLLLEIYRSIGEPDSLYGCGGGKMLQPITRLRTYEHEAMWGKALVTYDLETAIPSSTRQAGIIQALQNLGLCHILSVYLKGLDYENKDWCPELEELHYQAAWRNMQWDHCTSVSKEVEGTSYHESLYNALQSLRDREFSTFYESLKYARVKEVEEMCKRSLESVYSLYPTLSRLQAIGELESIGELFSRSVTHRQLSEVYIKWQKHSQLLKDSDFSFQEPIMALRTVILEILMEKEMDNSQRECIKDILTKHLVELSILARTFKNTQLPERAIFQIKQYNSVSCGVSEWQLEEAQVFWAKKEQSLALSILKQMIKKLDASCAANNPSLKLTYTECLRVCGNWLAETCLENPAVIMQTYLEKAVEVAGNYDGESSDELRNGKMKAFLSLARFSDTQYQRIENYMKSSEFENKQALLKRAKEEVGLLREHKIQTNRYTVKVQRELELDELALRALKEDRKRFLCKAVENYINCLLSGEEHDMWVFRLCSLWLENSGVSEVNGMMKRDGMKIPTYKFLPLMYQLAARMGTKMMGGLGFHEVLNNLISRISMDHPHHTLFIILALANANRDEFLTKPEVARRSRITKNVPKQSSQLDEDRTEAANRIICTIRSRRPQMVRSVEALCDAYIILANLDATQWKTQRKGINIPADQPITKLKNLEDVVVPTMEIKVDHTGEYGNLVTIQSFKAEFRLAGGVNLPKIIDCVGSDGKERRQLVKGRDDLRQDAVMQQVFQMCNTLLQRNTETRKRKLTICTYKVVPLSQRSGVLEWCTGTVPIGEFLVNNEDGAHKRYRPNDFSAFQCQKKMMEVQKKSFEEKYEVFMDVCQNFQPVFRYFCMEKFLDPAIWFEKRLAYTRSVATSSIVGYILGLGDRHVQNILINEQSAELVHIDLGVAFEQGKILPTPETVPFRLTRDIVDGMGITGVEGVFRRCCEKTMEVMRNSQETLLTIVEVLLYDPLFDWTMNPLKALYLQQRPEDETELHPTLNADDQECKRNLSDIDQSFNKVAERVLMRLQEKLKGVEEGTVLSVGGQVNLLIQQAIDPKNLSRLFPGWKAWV
UniProt Q92878: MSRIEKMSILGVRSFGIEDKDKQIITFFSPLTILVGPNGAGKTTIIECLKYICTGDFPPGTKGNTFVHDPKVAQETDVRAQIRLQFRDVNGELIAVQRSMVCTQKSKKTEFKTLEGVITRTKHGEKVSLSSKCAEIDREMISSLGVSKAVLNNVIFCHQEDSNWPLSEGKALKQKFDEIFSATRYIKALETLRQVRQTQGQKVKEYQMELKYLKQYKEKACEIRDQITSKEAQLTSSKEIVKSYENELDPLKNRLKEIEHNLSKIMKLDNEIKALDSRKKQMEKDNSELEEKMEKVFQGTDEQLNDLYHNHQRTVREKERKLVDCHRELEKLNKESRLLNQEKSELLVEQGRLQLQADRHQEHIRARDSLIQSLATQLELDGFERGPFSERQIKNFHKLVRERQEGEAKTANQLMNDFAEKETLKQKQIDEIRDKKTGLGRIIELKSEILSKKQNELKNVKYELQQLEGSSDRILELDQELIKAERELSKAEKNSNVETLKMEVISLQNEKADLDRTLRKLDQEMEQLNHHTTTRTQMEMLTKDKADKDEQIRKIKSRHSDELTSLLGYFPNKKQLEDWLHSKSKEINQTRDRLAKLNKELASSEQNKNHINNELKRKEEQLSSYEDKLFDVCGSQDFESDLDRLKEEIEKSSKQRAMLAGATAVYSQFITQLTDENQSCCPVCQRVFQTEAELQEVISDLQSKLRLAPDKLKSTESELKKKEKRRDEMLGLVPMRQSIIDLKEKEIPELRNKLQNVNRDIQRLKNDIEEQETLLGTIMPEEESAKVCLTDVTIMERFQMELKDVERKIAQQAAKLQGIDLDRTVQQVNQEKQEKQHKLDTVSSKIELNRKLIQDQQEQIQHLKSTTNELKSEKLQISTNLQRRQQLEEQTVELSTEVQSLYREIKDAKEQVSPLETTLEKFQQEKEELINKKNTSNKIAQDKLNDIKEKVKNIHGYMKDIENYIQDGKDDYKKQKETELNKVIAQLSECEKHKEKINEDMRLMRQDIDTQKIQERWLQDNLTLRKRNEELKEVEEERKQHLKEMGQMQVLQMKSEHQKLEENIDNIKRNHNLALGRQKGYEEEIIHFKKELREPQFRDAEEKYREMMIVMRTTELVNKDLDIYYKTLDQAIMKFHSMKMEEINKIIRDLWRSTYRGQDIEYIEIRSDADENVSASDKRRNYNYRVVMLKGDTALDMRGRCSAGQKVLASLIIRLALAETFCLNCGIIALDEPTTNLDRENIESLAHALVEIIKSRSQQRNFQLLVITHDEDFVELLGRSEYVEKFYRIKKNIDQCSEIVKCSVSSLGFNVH
UniProt O60934: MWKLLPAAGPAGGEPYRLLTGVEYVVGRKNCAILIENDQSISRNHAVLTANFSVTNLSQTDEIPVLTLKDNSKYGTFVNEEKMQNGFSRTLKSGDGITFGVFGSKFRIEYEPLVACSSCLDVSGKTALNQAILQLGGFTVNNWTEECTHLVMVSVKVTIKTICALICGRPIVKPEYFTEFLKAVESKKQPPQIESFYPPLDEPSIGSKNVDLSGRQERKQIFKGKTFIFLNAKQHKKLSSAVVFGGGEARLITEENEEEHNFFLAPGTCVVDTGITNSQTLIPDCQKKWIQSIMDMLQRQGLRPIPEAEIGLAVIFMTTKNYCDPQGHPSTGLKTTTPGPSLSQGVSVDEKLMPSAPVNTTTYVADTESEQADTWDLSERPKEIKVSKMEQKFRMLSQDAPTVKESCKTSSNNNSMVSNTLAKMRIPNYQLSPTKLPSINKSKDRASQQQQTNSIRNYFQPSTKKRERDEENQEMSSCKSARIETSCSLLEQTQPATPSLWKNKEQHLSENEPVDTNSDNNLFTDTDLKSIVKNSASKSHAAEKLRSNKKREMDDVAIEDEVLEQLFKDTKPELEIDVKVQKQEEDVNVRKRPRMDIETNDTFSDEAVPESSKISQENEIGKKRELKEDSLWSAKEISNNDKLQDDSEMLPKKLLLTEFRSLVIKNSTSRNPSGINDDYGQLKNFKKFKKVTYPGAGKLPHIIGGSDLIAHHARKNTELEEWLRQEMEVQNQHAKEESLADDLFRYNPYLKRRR
UniProt P16403: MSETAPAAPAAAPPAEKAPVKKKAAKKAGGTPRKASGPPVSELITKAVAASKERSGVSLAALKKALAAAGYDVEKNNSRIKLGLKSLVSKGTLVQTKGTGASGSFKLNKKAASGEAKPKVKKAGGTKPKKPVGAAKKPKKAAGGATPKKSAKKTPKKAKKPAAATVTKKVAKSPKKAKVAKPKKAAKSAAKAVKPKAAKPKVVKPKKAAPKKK

How the values were obtained:
[1] = target: ATM (ataxia telangiectasia mutated), endogenous in HeLa cells (human (endogenous in HeLa)) (UniProt Q13315); assay: co-IP; HeLa cell lysates in NP-40 buffer, precipitated with the indicated antibodies (anti-ATM and others) and protein G or A Sepharose, 4 °C overnight; immunoblot; with or without benzonase (10 U/mL), H1.2 over-expression, 40 μM etoposide 2 h
[2] = target: GST-RAD50 (UniProt Q92878); assay: pull-down; GST pull-down: equal amounts of HIS-fusion protein incubated with GST-fusion proteins (from E. coli) in TEN buffer (10 mM Tris-HCl pH 8.0, 1 mM EDTA, 100 mM NaCl), 4 h, 4 °C; immunoblot; for H1.2-MRE11 also with benzonase; both purified
[3] = target: T1, GST-MRE11 (UniProt P49959); assay: as above
T1 sequence: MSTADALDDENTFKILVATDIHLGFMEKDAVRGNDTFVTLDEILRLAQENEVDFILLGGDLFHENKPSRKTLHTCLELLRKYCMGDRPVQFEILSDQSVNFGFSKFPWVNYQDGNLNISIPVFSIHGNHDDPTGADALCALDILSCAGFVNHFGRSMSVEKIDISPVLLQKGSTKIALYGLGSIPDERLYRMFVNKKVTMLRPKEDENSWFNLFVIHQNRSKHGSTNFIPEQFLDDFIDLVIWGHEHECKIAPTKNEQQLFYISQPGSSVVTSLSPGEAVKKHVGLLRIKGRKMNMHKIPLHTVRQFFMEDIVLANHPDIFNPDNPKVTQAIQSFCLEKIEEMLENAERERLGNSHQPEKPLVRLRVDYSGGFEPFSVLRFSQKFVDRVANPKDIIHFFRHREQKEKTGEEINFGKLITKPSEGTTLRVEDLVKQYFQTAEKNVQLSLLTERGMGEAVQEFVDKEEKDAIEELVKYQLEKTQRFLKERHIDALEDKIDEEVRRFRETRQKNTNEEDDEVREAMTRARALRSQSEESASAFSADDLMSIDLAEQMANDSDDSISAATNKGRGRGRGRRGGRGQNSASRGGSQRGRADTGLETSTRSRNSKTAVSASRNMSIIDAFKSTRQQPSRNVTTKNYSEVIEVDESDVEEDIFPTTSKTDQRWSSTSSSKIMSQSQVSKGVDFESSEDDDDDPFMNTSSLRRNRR

[4] = target: GST-NBS1 (UniProt O60934); assay: as above

| binding [2] | binding [3] | binding [4] | Substance | binding [1] |
| --- | --- | --- | --- | --- |
| – | – | – | linker histone H1.2, endogenous in HeLa cells (from UniProt P16403 1-213) | binds |
| no binding | binds | no binding | HIS-H1.2 (recombinant full-length linker histone H1.2) (from UniProt P16403 1-213) | – |
